Several values for one entry are separate records, joined by “and”; a condition that tells them apart may be missing. Equal values may be shown once. Inconclusive results, whose numbers are uncertain, are shown with a selection of clear calls. For part of these data: Potencies beside an inconclusive call are fits to weak or partial responses and may not hold up. Activity calls are given as the source filed them. How the source made its calls: active means hit-call score of the fitted dose curve at least 0.9, where 1 is the maximum; inconclusive means response in the unintended direction; inactive means score below 0.9.
Experiments:
[1] = target: Glucocorticoid receptor (Homo sapiens) (UniProt P04150); test: ATG_GR_TRANS: Attagene TRANS-FACTORIAL HepG2 Assay for human Glucocorticoid Receptor (GR) (AID 2282978); settings: HepG2 Attagene TRANS GR reporter, mRNA transcription;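 further: activators score as hits since higher reporter transcript over DMSO is fitted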
Method in brief: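 Readout is reporter transcript from a chimeric GR-Gal4 acting on GAL4-UAS in transfected human HepG2 liver cells after 24 h exposure, quantified by RT-PCR and capillary electrophoresis. Activation fitted upward against DMSO.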

Protein sequences, listed by entry. Tags and fused reporters are not part of them. Lines headed by an entry give the natural chain unless they say otherwise; changes in a name come on top.
UniProt P04150: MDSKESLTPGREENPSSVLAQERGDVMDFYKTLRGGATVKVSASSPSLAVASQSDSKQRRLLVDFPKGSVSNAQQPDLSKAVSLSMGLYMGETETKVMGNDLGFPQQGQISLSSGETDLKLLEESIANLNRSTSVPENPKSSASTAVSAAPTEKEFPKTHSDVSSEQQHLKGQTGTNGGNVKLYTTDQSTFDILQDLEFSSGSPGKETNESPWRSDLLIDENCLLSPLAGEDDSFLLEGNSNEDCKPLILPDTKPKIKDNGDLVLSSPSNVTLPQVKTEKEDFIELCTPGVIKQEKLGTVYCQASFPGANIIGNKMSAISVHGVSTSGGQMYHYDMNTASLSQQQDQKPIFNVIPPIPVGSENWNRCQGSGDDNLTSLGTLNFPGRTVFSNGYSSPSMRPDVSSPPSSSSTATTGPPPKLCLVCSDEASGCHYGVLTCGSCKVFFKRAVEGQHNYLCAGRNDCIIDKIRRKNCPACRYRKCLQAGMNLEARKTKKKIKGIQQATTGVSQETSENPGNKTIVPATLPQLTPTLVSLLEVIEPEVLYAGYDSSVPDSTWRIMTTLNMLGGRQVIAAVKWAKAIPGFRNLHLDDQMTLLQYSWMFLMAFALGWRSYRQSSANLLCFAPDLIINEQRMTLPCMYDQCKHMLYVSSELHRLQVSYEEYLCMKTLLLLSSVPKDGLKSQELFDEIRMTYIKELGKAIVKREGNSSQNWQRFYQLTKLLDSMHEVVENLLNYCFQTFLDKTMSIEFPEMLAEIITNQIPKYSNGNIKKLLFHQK
UniProt Q03181: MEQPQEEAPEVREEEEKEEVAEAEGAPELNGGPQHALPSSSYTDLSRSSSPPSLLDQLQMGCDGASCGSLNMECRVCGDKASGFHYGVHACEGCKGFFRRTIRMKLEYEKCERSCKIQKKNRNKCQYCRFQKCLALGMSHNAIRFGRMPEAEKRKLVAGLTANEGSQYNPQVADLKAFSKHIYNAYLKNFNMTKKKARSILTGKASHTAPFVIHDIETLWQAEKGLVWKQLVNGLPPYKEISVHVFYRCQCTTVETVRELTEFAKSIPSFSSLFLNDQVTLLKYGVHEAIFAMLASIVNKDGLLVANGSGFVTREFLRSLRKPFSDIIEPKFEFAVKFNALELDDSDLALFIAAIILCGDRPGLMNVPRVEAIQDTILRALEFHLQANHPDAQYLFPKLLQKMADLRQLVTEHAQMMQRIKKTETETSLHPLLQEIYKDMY
UniProt P11473: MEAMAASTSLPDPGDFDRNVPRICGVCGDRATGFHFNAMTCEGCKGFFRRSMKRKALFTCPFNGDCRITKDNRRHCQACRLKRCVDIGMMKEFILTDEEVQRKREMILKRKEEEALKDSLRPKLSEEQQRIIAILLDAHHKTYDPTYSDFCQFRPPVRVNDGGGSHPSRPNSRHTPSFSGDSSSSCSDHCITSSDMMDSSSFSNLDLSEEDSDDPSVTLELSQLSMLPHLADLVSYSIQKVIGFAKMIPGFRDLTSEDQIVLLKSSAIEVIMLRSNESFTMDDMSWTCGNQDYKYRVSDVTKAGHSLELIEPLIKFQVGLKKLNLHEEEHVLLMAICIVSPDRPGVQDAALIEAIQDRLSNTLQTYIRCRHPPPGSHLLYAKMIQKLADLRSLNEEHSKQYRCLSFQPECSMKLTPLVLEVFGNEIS
UniProt P19793: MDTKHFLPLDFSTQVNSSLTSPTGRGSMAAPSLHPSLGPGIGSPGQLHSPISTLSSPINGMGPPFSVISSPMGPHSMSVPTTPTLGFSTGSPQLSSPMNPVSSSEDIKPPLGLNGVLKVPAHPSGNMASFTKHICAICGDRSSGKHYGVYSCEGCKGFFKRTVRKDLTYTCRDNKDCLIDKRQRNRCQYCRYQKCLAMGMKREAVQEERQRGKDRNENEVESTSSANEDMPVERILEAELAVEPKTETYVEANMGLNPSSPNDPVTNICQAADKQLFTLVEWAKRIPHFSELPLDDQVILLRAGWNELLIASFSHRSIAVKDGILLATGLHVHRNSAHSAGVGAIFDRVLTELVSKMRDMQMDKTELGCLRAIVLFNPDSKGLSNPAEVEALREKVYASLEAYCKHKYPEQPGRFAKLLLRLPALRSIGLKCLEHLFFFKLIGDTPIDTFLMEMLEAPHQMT
UniProt O75469: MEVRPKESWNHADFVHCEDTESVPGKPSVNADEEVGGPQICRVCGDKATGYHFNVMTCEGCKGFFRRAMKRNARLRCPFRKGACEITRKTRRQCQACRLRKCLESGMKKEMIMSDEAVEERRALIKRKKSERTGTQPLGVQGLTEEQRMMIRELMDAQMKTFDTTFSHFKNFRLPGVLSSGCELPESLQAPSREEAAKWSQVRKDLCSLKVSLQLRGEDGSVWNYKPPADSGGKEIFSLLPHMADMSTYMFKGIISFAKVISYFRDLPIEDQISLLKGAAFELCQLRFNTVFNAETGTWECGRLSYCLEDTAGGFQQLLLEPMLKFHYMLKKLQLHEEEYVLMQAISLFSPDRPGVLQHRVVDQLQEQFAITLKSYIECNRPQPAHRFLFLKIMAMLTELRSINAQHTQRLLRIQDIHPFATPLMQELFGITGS
UniProt P04637, whole entry, looked up: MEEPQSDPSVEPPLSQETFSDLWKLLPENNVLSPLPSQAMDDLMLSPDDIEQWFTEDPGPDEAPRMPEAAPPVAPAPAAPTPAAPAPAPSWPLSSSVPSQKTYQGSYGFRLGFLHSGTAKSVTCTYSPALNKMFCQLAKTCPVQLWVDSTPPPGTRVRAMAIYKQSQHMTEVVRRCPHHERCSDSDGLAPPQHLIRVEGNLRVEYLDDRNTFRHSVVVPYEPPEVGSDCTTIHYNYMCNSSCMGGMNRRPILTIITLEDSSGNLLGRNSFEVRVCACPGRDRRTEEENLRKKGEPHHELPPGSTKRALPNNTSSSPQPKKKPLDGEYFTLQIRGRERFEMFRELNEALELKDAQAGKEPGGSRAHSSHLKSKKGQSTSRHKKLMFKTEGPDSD
UniProt Q96RI1: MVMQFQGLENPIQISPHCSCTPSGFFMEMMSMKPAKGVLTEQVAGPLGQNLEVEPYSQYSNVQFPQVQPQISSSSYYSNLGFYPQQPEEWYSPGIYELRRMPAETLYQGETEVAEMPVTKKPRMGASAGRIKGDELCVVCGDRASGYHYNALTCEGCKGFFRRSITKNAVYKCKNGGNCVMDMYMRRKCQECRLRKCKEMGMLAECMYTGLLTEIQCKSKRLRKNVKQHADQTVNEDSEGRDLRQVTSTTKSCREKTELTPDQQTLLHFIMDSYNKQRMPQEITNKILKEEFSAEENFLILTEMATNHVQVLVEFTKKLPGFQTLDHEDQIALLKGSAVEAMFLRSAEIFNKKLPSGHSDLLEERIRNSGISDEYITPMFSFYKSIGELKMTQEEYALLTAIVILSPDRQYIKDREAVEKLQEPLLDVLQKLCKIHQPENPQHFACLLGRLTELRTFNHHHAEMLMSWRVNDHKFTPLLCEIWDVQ
UniProt P37231: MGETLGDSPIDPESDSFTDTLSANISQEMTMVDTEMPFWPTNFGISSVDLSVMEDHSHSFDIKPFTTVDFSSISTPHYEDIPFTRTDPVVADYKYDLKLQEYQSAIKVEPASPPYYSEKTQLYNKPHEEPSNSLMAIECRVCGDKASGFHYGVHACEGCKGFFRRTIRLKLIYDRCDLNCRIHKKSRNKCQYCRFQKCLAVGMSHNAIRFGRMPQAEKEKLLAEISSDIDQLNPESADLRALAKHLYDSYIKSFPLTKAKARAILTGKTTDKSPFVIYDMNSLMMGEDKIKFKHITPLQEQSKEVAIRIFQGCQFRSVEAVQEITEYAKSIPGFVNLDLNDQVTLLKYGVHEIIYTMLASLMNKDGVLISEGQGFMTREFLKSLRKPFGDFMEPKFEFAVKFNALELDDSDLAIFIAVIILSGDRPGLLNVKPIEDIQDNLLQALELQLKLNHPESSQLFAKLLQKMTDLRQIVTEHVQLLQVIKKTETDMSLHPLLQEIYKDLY

[2] = target: human Peroxisome Proliferator-activated Receptor delta (PPARd), PPARD (gene 5467) (UniProt Q03181); test: ATG_PPARd_TRANS: Attagene TRANS-FACTORIAL HepG2 Assay for human Peroxisome Proliferator-activated Receptor delta (PPARd) (AID 2283002)
Method in brief: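 HepG2 cells transiently transfected with multiplexed GAL4-UAS reporter units and exogenous chimeric NR-Gal4 proteins; 24 h compound exposure. Reporter mRNA measured by RT-PCR, 6-FAM labelling, HpaI digestion and capillary electrophoresis; gain of signal versus DMSO.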

[3] = target: human Vitamin D Receptor (VDR), VDR (gene 7421) (UniProt P11473); test: ATG_VDR_TRANS: Attagene TRANS-FACTORIAL HepG2 Assay for human Vitamin D Receptor (VDR) (AID 2283022)
Method in brief: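 Steps: transfect HepG2 with GAL4-UAS-driven reporter constructs; dose compounds 24 h; isolate RNA, reverse-transcribe, PCR-amplify with 6-FAM-labelled primer extension and HpaI digestion; quantify fragments by capillary electrophoresis relative to DMSO.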

[4] = target: Retinoic acid receptor RXR-alpha (Homo sapiens) (UniProt P19793); test: OT_NURR1_NURR1RXRa_0480: Odyssey Thera (OT) 8-hour HEK293T Protein Complementation Assay for Nurr1/retinoid X receptor (RXR) (AID 2283385)
Method in brief: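 HEK293T cells expressing Nurr1 and RXRα fused to reporter fragments were dosed with compound for 8 hours. Complex formation was read as fluorescence intensity and analysed as gain of signal against DMSO as baseline.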

[5] = CCTE_Deisenroth_AIME_384WELL_CTox_Active: Cytotoxicity Assessment (CTOX) in CCTE's 384-well Estrogen Receptor Transactivation Assay with AIME metabolic competence (metabolism positive), Deisenroth Lab (AID 2284037);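 further: chemicals first conditioned 2 h by alginate-bound induced rat liver S9 before cells; activity means signal loss indicating cell death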
Method in brief: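 VM7Luc4E2 breast cells received medium pre-incubated 2 h with chemical over alginate microspheres holding induced male Sprague Dawley rat liver S9; viability read 24 h later by protease-substrate fluorescence. Loss of signal, bidirectional fit, 0.002–200 uM.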

[6] = ATG_M_19_TRANS: Attagene TRANS-FACTORIAL HepG2 Assay for M19 Transcription Factor (Internal Marker) (AID 2282974); settings: HepG2 Attagene TRANS-FACTORIAL M19 internal marker reporter
Method in brief: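 Background-control readout: after 24 h chemical exposure of transfected HepG2 carrying GAL4-driven reporter units, RNA was reverse-transcribed, amplified, fluorescently labeled and sized by capillary electrophoresis; gain-of-signal fit against DMSO.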

[7] = target: Nuclear receptor subfamily 1 group I member 2 (Homo sapiens) (UniProt O75469); test: ATG_PXR_TRANS: Attagene TRANS-FACTORIAL HepG2 Assay for human Pregnane X Receptor (PXR) (AID 2283008)
Method in brief: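 Fluorescence intensity of FAM-labelled, HpaI-digested reporter amplicons, separated by capillary electrophoresis, quantifies induction. HepG2 cells with PXR-Gal4 trans-reporter system were exposed 24 h; DMSO defines baseline.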

[8] = ATG_XTT_Cytotoxicity: Cytotoxicity Assessment in the Attagene TRANS-FACTORIAL HepG2 Assay (AID 2283584);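 further: cells exposed to compound for 24 h before reading; active means loss of viability signal versus DMSO baseline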
Method in brief: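 Cells: human HepG2, transiently transfected with MRTU reporter constructs. Exposure 24 h. Readout: XTT, cell number. Baseline/neg ctrl DMSO; loss-of-signal scored.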

[9] = target: Cellular tumor antigen p53 (Homo sapiens) (UniProt P04637); test: TOX21_p53_BLA_p2_ratio: Tox21 HCT-116 p53 Agonism Beta-lactamase Assay, Ratio, Phase 2 (AID 2283592)
Method in brief: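 HCT116 p53-bla; 4000 cells/well; 5 h pre-incubation; cpd in DMSO, 217-fold dilution; 16 h 37C/5% CO2; CCF4-AM 2 h RT; Ex 405, Em 460/530 ratio; DMSO = baseline; positive fitting direction.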

[10] = target: Cellular tumor antigen p53 (Homo sapiens) (UniProt P04637); test: TOX21_p53_BLA_p3_ratio: Tox21 HCT-116 p53 Agonism Beta-lactamase Assay, Ratio, Phase 3 (AID 2283596)
Method in brief: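 HCT116 p53-bla cells (4000/well) given compound in DMSO (217-fold dilution) after 5 h, incubated 16 h at 37C. CCF4-AM substrate 2 h at room temperature; 460/530 nm emission ratio, gain fitted against DMSO.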

[11] = TOX21_p53_BLA_p5_viability: Viability Assessment in the Tox21 HCT-116 p53 Agonism Beta-lactamase Assay, Phase 5 (AID 2283600)
Method in brief: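 4000 cells/well; 5 h pre-incubation; DMSO compounds pin-transferred, 217-fold dilution; 16 h, 37C/5% CO2; CCF4-AM 2 h RT; CellTiter-Glo 30 min RT; luminescence.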

[12] = target: Cellular tumor antigen p53 (Homo sapiens) (UniProt P04637); test: TOX21_p53_BLA_p4_ratio: Tox21 HCT-116 p53 Agonism Beta-lactamase Assay, Ratio, Phase 4 (AID 2283601)
Method in brief: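 HCT116 cells carrying an inducible beta-lactamase reporter were plated at 4000 cells/well, rested 5 h, then exposed to compounds in DMSO (217-fold dilution) for 16 h at 37C. CCF4-AM substrate was loaded 2 h at room temperature; 460/530 nm emission ratio scored gain-of-signal versus DMSO.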

[13] = target: Bile acid receptor (Homo sapiens) (UniProt Q96RI1); test: ATG_FXR_TRANS: Attagene TRANS-FACTORIAL HepG2 Assay for Farnesoid X Receptor (FXR) (AID 2282979); settings: HepG2 Attagene TRANS FXR-GAL4 reporter transcription;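 further: hits raise reporter mRNA above DMSO so AC50 marks FXR activation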
Method in brief: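 Transient transfection of HepG2 with multiplexed GAL4-UAS reporter units; exogenous FXR-GAL4 chimera. Dose 24 h → TriZol RNA → oligo(dT) RT → PCR, 6-FAM primer extension, HpaI cut → CE. Gain vs DMSO.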

[14] = ATG_M_06_TRANS: Attagene TRANS-FACTORIAL HepG2 Assay for M06 Transcription Factor (Internal Marker) (AID 2282983); settings: HepG2 Attagene TRANS M06 internal marker reporter;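 further: potency for rise in reporter mRNA above DMSO baseline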
Method in brief: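 Transfect HepG2 with MRTUs → dose compounds 24 h → isolate RNA, oligo(dT) RT → PCR with reporter primers → 6-FAM primer extension → HpaI digest → CE fragment analysis. Positive direction vs DMSO.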

[15] = target: Peroxisome proliferator-activated receptor gamma (Homo sapiens) (UniProt P37231); test: ATG_PPARg_TRANS: Attagene TRANS-FACTORIAL HepG2 Assay for human Peroxisome Proliferator-activated Receptor-gamma (PPARg) (AID 2283007)
Method in brief: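 After 24 h of chemical exposure, transfected HepG2 cells carrying PPARγ-Gal4 chimera reporter constructs are lysed for RNA. Reporter transcripts are measured by RT-PCR and capillary electrophoresis with fluorescent labelling, and gain of signal is fitted versus DMSO.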

[16] = target: Retinoic acid receptor RXR-alpha (Homo sapiens) (UniProt P19793); test: OT_NURR1_NURR1RXRa_1440: Odyssey Thera (OT) 24-hour HEK293T Protein Complementation Assay for Nurr1/retinoid X receptor (RXR) (AID 2283386)
Method in brief: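 HEK293T cells were dosed with compound and read 24 h later by fluorescence intensity in a protein-fragment complementation format, where Nurr1–RXRα interaction reconstitutes a split reporter. Activity was fitted as gain of signal relative to DMSO baseline.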

[17] = CCTE_Harrill_HTTr_CellCount_MCF7: CCTE's Cell Proliferation Assessment for the High-Throughput Transcriptomics (HTTr) Platform, Harrill Lab (AID 2284012);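 further: cells exposed to compound for six hours; intended direction is loss of nuclei count meaning fewer cells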
Method in brief: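 MCF-7 cells were exposed for 6 h to an eight-point dilution series; Hoechst-labeled nuclei were counted by high content imaging. Curves were fitted bidirectionally against DMSO as negative control and baseline, with signal loss indicating reduced cell count.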

[18] = ATG_M_32_TRANS: Attagene TRANS-FACTORIAL HepG2 Assay for M32 Transcription Factor (Internal Marker) (AID 2282984); settings: HepG2 Attagene TRANS M32 internal marker reporter;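 further: transcript level of a background control reporter unit measured by RT-PCR and capillary electrophoresis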
Method in brief: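 HepG2 cells transiently transfected with multiple GAL4-UAS reporter transcription units, dosed for 24 hours; reporter mRNA quantified by RT-PCR, 6-FAM primer extension, HpaI digestion and capillary electrophoresis. Gain-of-signal fitted versus DMSO baseline; internal background-control marker.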

[19] = target: Cellular tumor antigen p53 (Homo sapiens) (UniProt P04637); test: TOX21_p53_BLA_p5_ratio: Tox21 HCT-116 p53 Agonism Beta-lactamase Assay, Ratio, Phase 5 (AID 2283599)
Method in brief: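 HCT-116 cells carrying a p53-inducible beta-lactamase reporter were seeded at 4000 cells/well and dosed after 5 h with compound in DMSO (217-fold dilution). After 16 h at 37C, CCF4-AM substrate was added for 2 h, and the 460/530 nm emission ratio was scored as gain-of-signal versus DMSO.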

## CCN(Cc1cccc(S(=O)(=O)O)c1)c1ccc(C(=C2C=CC(=[N+](CC)Cc3cccc(S(=O)(=O)O)c3)C=C2)c2ccc(O)cc2S(=O)(=O)[O-])cc1
[1]
  AC50: inconclusive: 16.2 µM
[2]
  outcome: inactive
[3]
  AC50: inconclusive: 66 µM
[4]
  outcome: inactive
[5]
  AC50: active: 124 µM

## CCCCCCCCCCCCCCCCCC[N+](C)(C)Cc1ccccc1
[6]
  AC50: inconclusive: 50 µM
[2]
  AC50: inconclusive: 50 µM
[7]
  outcome: inactive
[3]
  outcome: inactive
[8]
  AC50: active: 29 µM
[9]
  AC50: active: 74.3 µM
[10]
  AC50: active: 60.6 µM
[11]
  AC50: active: 15 µM
[12]
  AC50: active: 69.6 µM

## NC(=O)N(O)[C@@H]1C=C[C@H](Oc2cccc(Oc3ccc(F)cc3)c2)C1
[13]
  outcome: inactive
[14]
  AC50: inconclusive: 53.6 µM
[15]
  AC50: active: 10.1 µM
[16]
  outcome: inactive
[9]
  AC50: active: 66.5 µM
[10]
  outcome: inactive
[11]
  AC50: inconclusive: 0.276 µM
[12]
  AC50: active: 74.5 µM
[17]
  outcome: inactive

## NNS(=O)(=O)c1ccc(Oc2ccc(S(=O)(=O)NN)cc2)cc1
[13]
  AC50: inconclusive: 27.2 µM
[18]
  outcome: inactive
[2]
  AC50: inconclusive: 100 µM
[9]
  AC50: inconclusive: 46.1 µM
[10]
  AC50: inconclusive: 46.1 µM
[12]
  outcome: inactive
[17]
  AC50: inconclusive: 50 µM

## [O-]n1ccccc1=S.[O-]n1ccccc1=S.[Zn+2]
[1]
  AC50: inconclusive: 0.000423 µM
[15]
  outcome: inactive
[16]
  AC50: inconclusive: 1.74 µM
[8]
  AC50: active: 2.87 µM
[9]
  AC50: active: 33.8 µM [middle of 4 runs]
[10]
  AC50: active: 35.7 µM [middle of 4 runs]
[19]
  AC50: active: 24.8 µM [middle of 4 runs]
[11]
  AC50: active: 19.1 µM [middle of 4 runs]
[12]
  AC50: active: 21.1 µM [middle of 4 runs]
[17]
  AC50: active: 50 µM
